Measurements reported in PMC5371550, “GABAB receptor attenuation of GABAA currents in neurons of the mammalian central nervous system” (Physiological Reports, 2017).

Tested on: T1, α-subunit containing GABAA receptor (GABAAR) from human amygdala
T1 construct: gene GABRA1
Settings: agonist; -70 mV, pH 7.4, room temperature; total GABA current (includes minor rho component; GABAB receptors also present)

EC50: 69 µM
SMILES: NCCCC(=O)O [GABA]
